Assay [1] concerns the target T1, calmodulin-like protein 41 (CML41) fused to the C-terminal YFP fragment (Arabidopsis thaliana) (UniProt Q8L3R2).
T1 sequence: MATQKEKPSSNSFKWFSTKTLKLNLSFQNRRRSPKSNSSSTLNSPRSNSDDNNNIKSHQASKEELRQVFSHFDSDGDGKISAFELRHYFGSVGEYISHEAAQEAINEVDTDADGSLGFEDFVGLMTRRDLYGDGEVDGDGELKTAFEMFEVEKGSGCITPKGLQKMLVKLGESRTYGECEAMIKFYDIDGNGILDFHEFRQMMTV
Kind of assay: split reporter; split-YFP fusions (YFP^n and YFP^c) co-expressed by Agrobacterium infiltration in N. benthamiana leaves; confocal microscopy after 2-3 days; also imaged 2 hours after spraying with eH2O2.

Protein sequences, listed by entry. Tags and fused reporters are not part of them.
UniProt Q9LUD7: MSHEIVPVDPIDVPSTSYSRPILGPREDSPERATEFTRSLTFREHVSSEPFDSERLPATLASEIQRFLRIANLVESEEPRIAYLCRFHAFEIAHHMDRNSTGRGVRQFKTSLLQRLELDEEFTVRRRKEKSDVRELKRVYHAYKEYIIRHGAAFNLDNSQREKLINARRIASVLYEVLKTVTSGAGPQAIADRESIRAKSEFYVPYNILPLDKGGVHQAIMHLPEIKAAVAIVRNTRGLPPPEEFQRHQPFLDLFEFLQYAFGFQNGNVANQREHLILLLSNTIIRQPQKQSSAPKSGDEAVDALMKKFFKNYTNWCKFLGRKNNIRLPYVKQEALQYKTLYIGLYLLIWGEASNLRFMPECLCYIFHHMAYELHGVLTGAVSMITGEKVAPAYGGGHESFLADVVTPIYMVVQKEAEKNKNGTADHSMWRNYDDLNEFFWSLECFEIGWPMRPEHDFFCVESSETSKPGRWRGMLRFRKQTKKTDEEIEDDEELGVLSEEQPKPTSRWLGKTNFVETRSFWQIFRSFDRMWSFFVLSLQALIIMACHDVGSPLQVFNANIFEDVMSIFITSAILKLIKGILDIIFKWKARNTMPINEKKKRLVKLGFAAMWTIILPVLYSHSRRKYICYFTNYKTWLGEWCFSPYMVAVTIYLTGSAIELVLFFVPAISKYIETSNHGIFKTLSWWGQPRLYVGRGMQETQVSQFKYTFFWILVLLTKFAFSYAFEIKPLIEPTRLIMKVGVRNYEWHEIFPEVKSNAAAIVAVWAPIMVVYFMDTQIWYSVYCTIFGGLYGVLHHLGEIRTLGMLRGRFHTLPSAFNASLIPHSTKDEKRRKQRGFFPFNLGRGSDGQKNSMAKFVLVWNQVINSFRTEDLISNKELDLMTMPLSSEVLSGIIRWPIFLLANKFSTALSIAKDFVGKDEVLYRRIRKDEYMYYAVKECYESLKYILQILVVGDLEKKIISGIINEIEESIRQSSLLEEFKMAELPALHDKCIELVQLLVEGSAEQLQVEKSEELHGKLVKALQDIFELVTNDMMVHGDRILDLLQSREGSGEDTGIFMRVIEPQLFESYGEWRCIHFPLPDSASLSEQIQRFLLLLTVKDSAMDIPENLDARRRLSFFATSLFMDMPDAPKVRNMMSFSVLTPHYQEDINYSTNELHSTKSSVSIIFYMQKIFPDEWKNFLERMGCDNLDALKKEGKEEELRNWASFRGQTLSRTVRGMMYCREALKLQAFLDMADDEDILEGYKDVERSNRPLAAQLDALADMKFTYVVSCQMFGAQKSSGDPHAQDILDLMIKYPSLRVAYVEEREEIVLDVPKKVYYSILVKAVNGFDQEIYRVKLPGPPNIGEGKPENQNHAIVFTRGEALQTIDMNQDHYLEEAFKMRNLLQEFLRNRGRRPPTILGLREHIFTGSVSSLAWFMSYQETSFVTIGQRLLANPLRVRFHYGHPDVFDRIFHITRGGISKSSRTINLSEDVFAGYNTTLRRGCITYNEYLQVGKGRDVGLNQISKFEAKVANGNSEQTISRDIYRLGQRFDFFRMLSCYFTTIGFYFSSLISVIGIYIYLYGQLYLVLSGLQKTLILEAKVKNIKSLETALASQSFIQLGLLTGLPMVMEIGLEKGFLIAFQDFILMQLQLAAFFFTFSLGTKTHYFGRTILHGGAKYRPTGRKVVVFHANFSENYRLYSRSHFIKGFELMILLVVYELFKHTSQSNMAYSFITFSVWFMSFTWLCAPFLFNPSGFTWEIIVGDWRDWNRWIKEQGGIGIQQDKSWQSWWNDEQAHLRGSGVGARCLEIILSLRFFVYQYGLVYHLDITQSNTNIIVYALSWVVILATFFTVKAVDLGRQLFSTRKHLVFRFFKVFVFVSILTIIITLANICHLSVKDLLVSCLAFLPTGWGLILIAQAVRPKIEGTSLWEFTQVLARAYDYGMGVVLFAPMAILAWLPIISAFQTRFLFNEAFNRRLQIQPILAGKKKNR
UniProt Q9SJM0: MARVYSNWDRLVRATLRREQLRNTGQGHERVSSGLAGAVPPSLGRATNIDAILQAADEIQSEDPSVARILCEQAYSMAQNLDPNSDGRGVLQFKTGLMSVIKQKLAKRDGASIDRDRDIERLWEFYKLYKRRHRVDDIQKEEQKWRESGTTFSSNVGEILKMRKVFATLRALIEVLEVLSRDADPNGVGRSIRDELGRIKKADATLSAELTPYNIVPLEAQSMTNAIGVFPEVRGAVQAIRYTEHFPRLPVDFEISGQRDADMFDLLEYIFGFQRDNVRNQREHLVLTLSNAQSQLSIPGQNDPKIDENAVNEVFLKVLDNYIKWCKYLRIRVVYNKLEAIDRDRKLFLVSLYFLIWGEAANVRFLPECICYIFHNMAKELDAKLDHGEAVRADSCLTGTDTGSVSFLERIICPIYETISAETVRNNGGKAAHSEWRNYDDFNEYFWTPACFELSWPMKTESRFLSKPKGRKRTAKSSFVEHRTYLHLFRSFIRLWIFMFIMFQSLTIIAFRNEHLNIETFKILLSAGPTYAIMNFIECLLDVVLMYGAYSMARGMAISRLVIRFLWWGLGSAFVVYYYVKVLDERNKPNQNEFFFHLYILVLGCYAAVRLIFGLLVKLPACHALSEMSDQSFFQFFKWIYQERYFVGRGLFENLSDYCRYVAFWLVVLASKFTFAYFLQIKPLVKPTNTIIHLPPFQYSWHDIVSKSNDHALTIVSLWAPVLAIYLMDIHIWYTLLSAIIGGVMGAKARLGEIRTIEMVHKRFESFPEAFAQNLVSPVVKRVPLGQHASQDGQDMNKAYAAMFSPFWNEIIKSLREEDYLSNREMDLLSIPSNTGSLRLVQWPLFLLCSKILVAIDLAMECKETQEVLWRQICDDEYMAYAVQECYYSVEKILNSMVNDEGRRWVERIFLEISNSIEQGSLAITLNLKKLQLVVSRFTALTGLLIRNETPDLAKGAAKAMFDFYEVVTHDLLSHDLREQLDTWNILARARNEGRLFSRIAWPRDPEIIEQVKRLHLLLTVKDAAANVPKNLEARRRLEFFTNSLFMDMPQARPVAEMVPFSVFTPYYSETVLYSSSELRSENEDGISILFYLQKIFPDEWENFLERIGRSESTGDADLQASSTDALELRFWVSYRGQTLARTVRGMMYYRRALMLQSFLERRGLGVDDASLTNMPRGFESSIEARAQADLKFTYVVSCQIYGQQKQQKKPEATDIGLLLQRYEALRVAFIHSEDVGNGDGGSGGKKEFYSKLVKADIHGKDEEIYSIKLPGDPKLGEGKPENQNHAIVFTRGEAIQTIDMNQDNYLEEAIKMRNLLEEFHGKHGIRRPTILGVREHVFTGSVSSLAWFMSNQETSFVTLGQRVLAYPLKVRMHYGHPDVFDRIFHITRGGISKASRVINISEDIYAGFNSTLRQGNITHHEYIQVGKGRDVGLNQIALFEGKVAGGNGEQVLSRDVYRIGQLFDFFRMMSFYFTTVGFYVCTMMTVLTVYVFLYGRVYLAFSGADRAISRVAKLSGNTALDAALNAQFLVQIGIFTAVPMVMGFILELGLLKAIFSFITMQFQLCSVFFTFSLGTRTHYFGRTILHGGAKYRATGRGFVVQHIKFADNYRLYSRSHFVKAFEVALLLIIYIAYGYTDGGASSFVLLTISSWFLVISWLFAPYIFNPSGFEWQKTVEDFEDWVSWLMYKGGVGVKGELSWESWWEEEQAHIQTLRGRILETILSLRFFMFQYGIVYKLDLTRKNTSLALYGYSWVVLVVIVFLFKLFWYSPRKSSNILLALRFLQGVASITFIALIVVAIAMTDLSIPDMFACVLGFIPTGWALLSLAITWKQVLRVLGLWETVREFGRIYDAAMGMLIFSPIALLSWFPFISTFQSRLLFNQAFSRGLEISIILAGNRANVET

In assay [2] the target is GLUCAN SYNTHASE-LIKE 4 (GSL4) fused to the C-terminal YFP fragment (Arabidopsis thaliana) (UniProt Q9LUD7). The description is as above.
The target in assay [3] is GFP-tagged GLUCAN SYNTHASE-LIKE 4 (GSL4) (Arabidopsis thaliana) (UniProt Q9LUD7). The assay is described as follows: co-IP; NCRK (PDRLK1)-HA and GFP-tagged partners co-infiltrated in N. benthamiana leaves; lysate in IP buffer (100 mM Tris-HCl pH 7.5, 150 mM NaCl, 1 mM EDTA, 0.5% IGEPAL); anti-GFP antibody on protein A agarose, 2 hours at 4°C; immunoblotting.
Assay [4] deals with T2, GFP-tagged calmodulin-like protein 41 (CML41) (Arabidopsis thaliana) (UniProt Q8L3R2).
T2 sequence: T1 sequence
The description is as above.

Assay [5] concerns the target GFP-tagged GSL8 (Arabidopsis thaliana) (UniProt Q9SJM0). Described as above.

No constants are given. Whether binding was seen depends on the method and setting. In cells and extracts the contact can be indirect. Some results given as binding are weak or reduced against the parent protein; the word gives no strength. Where a sequence is shown, tags or fusion partners need not be part of it.

B1: NOVEL CYS-RICH RECEPTOR KINASE (NCRK) fused to the N-terminal YFP fragment (receptor, UniProt Q8VYY5 24-565)
chain: GVSNYTCTCFSSGNRSDILESNCSTSCNCRPDRDQWVCLCPANGFPVIAIGGSNSSCFTSCNCSAGATKSSKKQYLSRKLVIVILLFCGVLISLAFLASMICYICRKDKFSGQTPSVSSDRESSWHSSANLINRKSSVSQSKISISSSVAGCFFQNASLFCVSKPETIHGAIFQFSYTELEQATNKFSSNSVIGHGGSSCVYRGQLKDGKTAAIKRLNTPKGDDTDTLFSTEVELLSRLHHYHVVPLIGYCSEFHGKHAERLLVFEYMSYGSLRDCLDGELGEKMTWNIRISVALGAARGLEYLHEAAAPRILHRDVKSTNILLDENWHAKITDLGMAKCLSSDGLQSGSSSPTTGLQGTFGYFAPEYAIAGCASQMSDVFSFGVVLLELITGRKPIQKPSNNKGEESLVIWAVPRLQDSKRVIEELPDPRLNGKFAEEEMQIMAYLAKECLLLDPESRPTMREVVQILSTITPDTSSRRRNFPINYLFQSNEKKKESKVGWSRGGSKSGQEEETVDLTEPRFESFCLPNVKPVLLEPSAHI
Take B1: the binding result in assay [1] and in assay [2] was “binds” each time.

B2: NOVEL CYS-RICH RECEPTOR KINASE (NCRK), HA-tagged (receptor, UniProt Q8VYY5 24-565)
chain: B1 chain
For B2, the binding entry in assay [3], in assay [4] and in assay [5] was “binds” each time.

The record behind these values is PMC9893415.
